# The other results are listed elsewhere or left out.
# Protein sequences, listed by entry. Tags and fused reporters are not part of them.
# UniProt Q0JBA9, entry or part of it: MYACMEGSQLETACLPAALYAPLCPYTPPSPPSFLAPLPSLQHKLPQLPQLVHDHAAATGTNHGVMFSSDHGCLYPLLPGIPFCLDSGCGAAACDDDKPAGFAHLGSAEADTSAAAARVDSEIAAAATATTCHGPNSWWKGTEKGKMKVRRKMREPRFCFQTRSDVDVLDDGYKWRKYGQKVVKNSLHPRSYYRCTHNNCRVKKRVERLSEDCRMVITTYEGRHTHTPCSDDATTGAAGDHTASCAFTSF
# Molecular target: OsWRKY34 (Oryza sativa, UniProt Q0JBA9 1-250)
# Assay: protein-binding microarray (RPBM); PBS, 2% BSA, 51.3 ng/ul salmon testes DNA, 50 uM zinc acetate, 200 nM TF, 25 C, 1 h; high values mean tight binding
# Settings: protein: recombinant; tags: N-terminal polyhistidine and DsRed monomer fusion (pET32a); label: CyDye5-dUTP incorporated in the synthesized complementary strand; 3' TTTTT single-stranded linker to array surface; dsDNA, one strand shown
# Outline: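 The binding signal is fluorescence intensity per feature, in arbitrary units, read on an Axon 4000B scanner. Polyhistidine- and DsRed-tagged transcription factors (N-terminal fusions) from E. coli BL21-CodonPlus were purified on Ni–NTA and applied at 200 nM for 1 h at 25 °C to a double-stranded, BSA-blocked custom Agilent array in buffer with 50 µM zinc acetate.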
row,Sequence,binding signal
1,CACCGCCGCCGCCGCCGCCTCCGCTACTCCGTCCACGACTCGGAGTCACCTAGTGCAG,10200 fluorescence intensity (a.u.)
2,CTGACATATGACCCCATATGTTTTGTTTTTATTTTTTTAACGGAGTCACCTAGTGCAG,8290 fluorescence intensity (a.u.)
3,AGCTTCTAATCTTGTATTATCCGACCGTACGTATAACTTGCGGAGTCACCTAGTGCAG,8740 fluorescence intensity (a.u.)
4,CCCGATCCGACGGCTCACATTCACTCTCACCTCACCTGCCCGGAGTCACCTAGTGCAG,8680 fluorescence intensity (a.u.)
5,AATTCCCCGTTGCTATACCGGATTCGGTTCTTCTCGCCGACGGAGTCACCTAGTGCAG,8620 fluorescence intensity (a.u.)
6,TCGTAGTATCACACACTTCACACCACGTCACCACGCCCTCCGGAGTCACCTAGTGCAG,8110 fluorescence intensity (a.u.)
7,CTCTCTCTCTCTCTCTCTGCCTCGGCGACCTCGCCTCCGCCGGAGTCACCTAGTGCAG,10800 fluorescence intensity (a.u.)
8,AGGTCTTTGTCTGATGGTGTATTAATAATCCATCAGGTTTCGGAGTCACCTAGTGCAG,8980 fluorescence intensity (a.u.)
9,CCGCGTGCTTCTCTTCCTCGCTCACTCCTCCTCGCGTCCTCGGAGTCACCTAGTGCAG,9770 fluorescence intensity (a.u.)
10,ACCACCCAGGCATCATCCCGCTCGCCGTCCGCGACGTCTTCGGAGTCACCTAGTGCAG,10800 fluorescence intensity (a.u.)
11,TTTTCACACCAGCATTTAGCAGCATTTCTTCTCTTTGCAACGGAGTCACCTAGTGCAG,8650 fluorescence intensity (a.u.)
12,CTTTTCTGTCACATCGTTTCAATTTCAATCAAATTTTCAACGGAGTCACCTAGTGCAG,9910 fluorescence intensity (a.u.)
13,GCAGGGTCTCACCAACTCGCGTCACCCGCCGACGACCCCACGGAGTCACCTAGTGCAG,9270 fluorescence intensity (a.u.)
14,TTTTTTTCTGGGTTCGCCACTGTCTCTACCCAATCCTATACGGAGTCACCTAGTGCAG,9020 fluorescence intensity (a.u.)
15,GATATTTTTGGATGGAGGGAGTATTAAACTCTACGATAAACGGAGTCACCTAGTGCAG,8140 fluorescence intensity (a.u.)
16,ACAAACCCGACCTTGAACTCGAAACAGGCGCACATCCCACCGGAGTCACCTAGTGCAG,8560 fluorescence intensity (a.u.)
17,ACACTAAAGCTGATCCATCTTAATGTACAATGGGTTTTCTCGGAGTCACCTAGTGCAG,9090 fluorescence intensity (a.u.)
18,ACGTGGTTGGTTTGACTAGATCTTCGTCCCACGTGGCATTCGGAGTCACCTAGTGCAG,8320 fluorescence intensity (a.u.)
19,TTGACATTTCACGCGATTTCTCTCTCCTCTTCAACCGGAACGGAGTCACCTAGTGCAG,8900 fluorescence intensity (a.u.)
20,AAAACCGCAATATTACTCCATCACTCGAACTCTGATCCGACGGAGTCACCTAGTGCAG,8190 fluorescence intensity (a.u.)
21,AGTACAGCCTGTTAGGTCACATCTTGTGTTTCTTTATTTTCGGAGTCACCTAGTGCAG,11700 fluorescence intensity (a.u.)

# Looked up one by one from the list above:
row,Sequence,binding signal
21,AGTACAGCCTGTTAGGTCACATCTTGTGTTTCTTTATTTTCGGAGTCACCTAGTGCAG,11700 fluorescence intensity (a.u.)
2,CTGACATATGACCCCATATGTTTTGTTTTTATTTTTTTAACGGAGTCACCTAGTGCAG,8290 fluorescence intensity (a.u.)
16,ACAAACCCGACCTTGAACTCGAAACAGGCGCACATCCCACCGGAGTCACCTAGTGCAG,8560 fluorescence intensity (a.u.)

# Next results

row,Sequence,binding signal
1,GCTCGCTTTTTTTTTTTTCTGTTTCTTCGTTTCTCTTCCCCGGAGTCACCTAGTGCAG,11000 fluorescence intensity (a.u.)
2,TTGTTTTTTTTTTTTTGACCTTTTGTTCCCGTTCTCCATACGGAGTCACCTAGTGCAG,10800 fluorescence intensity (a.u.)
3,ACACTACACTAATCTCTACTTTACCACACCCTACAATATACGGAGTCACCTAGTGCAG,8940 fluorescence intensity (a.u.)
4,ATGTACTACCGTTTATATAATCATATTCTTTGTCGTCTGACGGAGTCACCTAGTGCAG,8540 fluorescence intensity (a.u.)
5,ATCTCTCTCTCTCTCTCTCTCTCTCTCTCTCTCTCTCTCTCGGAGTCACCTAGTGCAG,14200 fluorescence intensity (a.u.)
6,TTTTGCGGTTCGAGGACGTTTTTTATCTCGCTGACAAGTTCGGAGTCACCTAGTGCAG,9080 fluorescence intensity (a.u.)
7,TGCTTGATTTGACCATCCTACATATATTTCAGAATGGTTCCGGAGTCACCTAGTGCAG,8700 fluorescence intensity (a.u.)
8,AATGGGTGTTTTTTTAGTTGTTGTGTGTGTTTGGACGATTCGGAGTCACCTAGTGCAG,10400 fluorescence intensity (a.u.)
9,AATCTCCCGTATCGTCTCCTCCGCTCCTTGCGCCATCTCGCGGAGTCACCTAGTGCAG,8790 fluorescence intensity (a.u.)
10,ACACACACACACACACACACACATATATATATATATATATCGGAGTCACCTAGTGCAG,12000 fluorescence intensity (a.u.)
11,AAGGTTCGTTTCATTTTTTTTTACTTAATTAACTATTCCTCGGAGTCACCTAGTGCAG,8740 fluorescence intensity (a.u.)
12,CATCATAACTCCATGACGGTTGCTTAGTTGCCCTACAACCCGGAGTCACCTAGTGCAG,9400 fluorescence intensity (a.u.)
13,GCCCACCGCTTCCATCGTTCGTCCTCGTCTCCACGCTACCCGGAGTCACCTAGTGCAG,13600 fluorescence intensity (a.u.)
14,TTTTTCGTGTTTGCGTCGCATCCTAATCATAGCTTAAATCCGGAGTCACCTAGTGCAG,9560 fluorescence intensity (a.u.)
15,ACGCAGCTTGCCATGATGCCCAAGACGTCCACCACAAGTACGGAGTCACCTAGTGCAG,10600 fluorescence intensity (a.u.)
16,GGCAACCACGTAATTCCCTCCCTTTTCAGTTACTCATCAACGGAGTCACCTAGTGCAG,9620 fluorescence intensity (a.u.)
17,TACACACACAAACTTCCAACTTTTTCATCATATCGTTCCACGGAGTCACCTAGTGCAG,8760 fluorescence intensity (a.u.)
18,CCACACAAGTCACTTTTCTAGCTGCATCTACCCTCTAATCCGGAGTCACCTAGTGCAG,9250 fluorescence intensity (a.u.)
19,AATCTTGTACTTCATTTGTCTACAGTTTCAACTCTCTTTTCGGAGTCACCTAGTGCAG,10000 fluorescence intensity (a.u.)
20,GTTGTCCGCAGTTTCAGGTGCTTTGTAGTGTAGTTTAGTTCGGAGTCACCTAGTGCAG,9440 fluorescence intensity (a.u.)
21,CTTTATCTATTTATTCTTCCCCTGGTGTTCCTTCGTCTGTCGGAGTCACCTAGTGCAG,9390 fluorescence intensity (a.u.)
